Assay results from patent publication CN114773478A.
Results are given in words; binding and its absence hold for the method and conditions named. Some entries that bind do so weakly or less than the wild type.

Target: T1, 重组AFP抗原(爱必信生物，货号Abt-P-28) (UniProt P02771)
T1 sequence (looked up): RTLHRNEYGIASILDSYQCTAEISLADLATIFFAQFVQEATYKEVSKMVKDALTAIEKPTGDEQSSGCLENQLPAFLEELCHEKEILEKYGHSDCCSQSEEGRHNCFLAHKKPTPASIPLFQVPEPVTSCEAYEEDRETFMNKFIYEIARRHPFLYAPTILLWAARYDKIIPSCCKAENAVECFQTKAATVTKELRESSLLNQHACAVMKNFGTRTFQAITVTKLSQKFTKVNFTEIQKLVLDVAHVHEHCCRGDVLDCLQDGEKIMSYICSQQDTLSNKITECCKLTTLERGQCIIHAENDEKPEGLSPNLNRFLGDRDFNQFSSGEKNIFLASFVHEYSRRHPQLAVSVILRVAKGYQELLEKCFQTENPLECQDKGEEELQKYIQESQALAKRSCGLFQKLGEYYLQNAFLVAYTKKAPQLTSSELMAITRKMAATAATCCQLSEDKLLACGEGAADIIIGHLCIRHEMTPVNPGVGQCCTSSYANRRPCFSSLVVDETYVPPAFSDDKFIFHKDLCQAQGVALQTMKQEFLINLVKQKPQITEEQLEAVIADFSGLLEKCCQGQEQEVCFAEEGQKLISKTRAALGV
Assay: SPR, Biacore, AFP antigen coupled to chip, bispecific as analyte, 1:1 binding fit

B1: 抗AFP双特异性纳米抗体 1A6-(G4S)4-1E11 (bispecific antibody)
chain: QVQLQESGGALVQPGGSLKLSCAASESIFSFAAMGWYRQAPGKQRELVARITGGDNINYADSVKGRFTISKDNAKNTAYLQMNSLKPEDTAVYYCNGEGYGSSWFDDGKNYWGKGTQVTVSSGGGGSGGGGSGGGGSGGGGSQVQLQESGGGLVQPGGSLRVSCAASESIFSFAAMGWYRQAPGKQRELVARITGGDNINYADSVKGRFTISKDNAKNTVYLQMNSLKPEDTAVYYCNGEGYGSSWFDDGKNYWGKGTQVTVSS
binding: binds
